Test results from US20250049708A1, “A TOPICAL GEL FORMULATION FOR SKIN AND MOUTH DISORDERS AND A PROCESS OF PREPARATION THEREOF” (priority 2021, published 2025).
At least one structure is not confirmed: it was looked up by name or label, or the drawing left a doubt.

System: cheek pouches of mice with oral mucositis
Assay: histopathology of cheek pouches of mice with oral mucositis
Assay type: in vivo, male BALB/c mice
Settings: 100-X light microphotographs; 5-FU + scratch mice

## C[C@@H]1C[C@H]2[C@@H]3CCC4=CC(=O)C=C[C@]4(C)[C@@]3(F)[C@@H](O)C[C@]2(C)[C@@]1(O)C(=O)CO [Dexamethasone]
  histopathology of cheek pouches: normal morphology of mucosal squamous epithelial cells
